Patent US10016418B2, “Compounds useful as modulators of TRPM8” (Senomyx, Inc., priority 2010, dated 2018)

Assay: Cool Line Scale Test (sensory panel, 15 point line scale, WS-3 reference)
Format: in vivo, human
Experimental: All samples made with Low Sodium Buffer (LSB) pH ˜7.1 and contain 0.1% ethanol.
Compounds are rated on a 15 point line scale where 45 μM WS-3 (N-Ethyl-p-menthane-3-carboxamide) is ranked as a 5 in cool intensity. In most cases our compounds are tested to determine at what concentration the cooling intensity is equivalent to 45 μM WS-3. In each test, the panelist is presented with a 0 μM control sample, a 45 μM WS-3 control sample and the experimental compound sample and asked to rate the cooling intensity of each sample. Panelists are also asked to rate bitterness. In the table below there was no significant bitterness detected unless otherwise noted. Also, in the table below, n represents the number of tests completed for a given experiment (#panelists x #repetitions).
All samples were prepared with Low Sodium Buffer (LSB) pH ˜7.1 and contain 0.1% ethanol

## Cc1c[nH]nc1N(Cc1cccs1)C(=O)COc1ccc2c(c1)CCC2 [Example B1, 2-(2,3-dihydro-1H-inden-5-yloxy)-N-(4-methyl-1H-pyrazol-3-yl)-N-(thiophen-2-ylmethyl)acetamide]
Compound at 5 μM
  bitter offtaste: (p < 0.05). There were no significant bitter offtastes in any of the

## Cc1ccc(OCC(=O)N(Cc2cccs2)c2ccn[nH]2)cc1 [Example F1, N-(1H-pyrazol-5-yl)-N-(thiophen-2-ylmethyl)-2-(p-tolyloxy)acetamide]
Table 5, 3 μM in LSB, n = 28
  Average Bitterness: 0.4
Compound at 3 μM
  bitter offtaste: no significant bitter offtastes

## CCNC(=O)C1CC(C)CCC1C(C)C (centres unmarked) [WS-3, N-Ethyl-p-menthane-3-carboxamide, reference compound]
Table 3, 45 μM WS-3 control, n = 30
  Average Bitterness: 0.3
Table 5, 45 μM WS-3 control, n = 28
  Average Bitterness: 0.3
